PubChem BioAssay AID652259, Drosophila RNAi Screening Center, 2013

Aim: 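Genome-wide hunt for genes that control Wingless pathway activity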 (primary screen)
Cell system: Drosophila clone 8 imaginal disc epithelial cells
Reagents: long dsRNA against Drosophila genes
Challenge: pathway stimulated by co-transfected Wingless expression plasmid
Measurement: 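Firefly luciferase from a tcf-site Wingless reporter, measured alongside co-transfected Renilla luciferase that tracks transfection; pathway stimulated by a Wingless plasmid; the firefly-to-Renilla ratio is not deposited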
Direction: firefly reporter light: higher = more Wg reporter light, before normalisation; Renilla control light: higher = more transfected or surviving cells
Active means: 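Strong candidates differ from their plate mean by at least two out of four per-plate statistical tests; weak candidates meet just one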
Meaning of the calls: active = candidate regulator (raises or lowers reporter); inactive = not a candidate
The screen tested about 22,000 reagents; shown is an unselected part of those that have a named target and a result. Of all reagents, 233 (1.1%) are marked active. 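Light values are raw, unnormalised plate reads; the ratio scores behind the reporter calls were not deposited.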 A number with no mark means an inactive call. A plus sign joins genes that one reagent is predicted to hit. Reagent sequences are not shown. Not given: the amount of reagent, the time to read-out, the dose of the treatment.

Gene	dsRNA	reporter change call, replicate 1	firefly reporter light, replicate 1	firefly reporter light, replicate 2	Renilla control light, replicate 1	Renilla control light, replicate 2
SPH93 (GeneID 35049)	DRSC02978		3076	8605	1450	3688
Syx4 (GeneID 31269)	DRSC18586		29277		14588	
tws (GeneID 47877)	DRSC12767		3309		1722	
tws (GeneID 47877)	DRSC17092		8321		2183	
Tps1 (GeneID 33642)	DRSC00269		11110		4490	
CG13315 (GeneID 50300)	DRSC09986		1408	7544	1507	3110
CG14115 (GeneID 39487)	DRSC10118		7741		2960	
ush (GeneID 33225)	DRSC00843		8971		5164	
CG5217 (GeneID 42311)	DRSC15740		10620		3709	
Acbp5 (GeneID 39005)	DRSC10548		2000	11256	1025	3904
CG11537 (GeneID 38373)	DRSC08200		8071		1509	
Rac1 (GeneID 38146)	DRSC08688		4080		2166	
CG13564 (GeneID 37855)	DRSC04201		2218	5572	485	1949
CG34235 + CG30058 + CG34312	DRSC22142		4.31e5	4.81e5	1.82e5	1.96e5
CG15625 (GeneID 33694)	DRSC00460		2608	5094	769	785
Nrx-IV (GeneID 39387)	DRSC11238		6184		2739	
Cyp4ad1 (GeneID 35821)	DRSC07369		8978		3648	
CR11235 (GeneID 10178883)	DRSC20480		17163		1000	
CG8028 (GeneID 32923)	DRSC20075		20357		11840	
trc (GeneID 40165)	DRSC11406		21127		5655	
CG31867 (GeneID 261614)	DRSC03338		2282	3973	1147	1997
alphaSnap (GeneID 40233)	DRSC11285		3880		1317	
Ntl (GeneID 34046)	DRSC03003		4426		1778	
E(spl)malpha-BFM (GeneID 43153)	DRSC16994		22849		12892	
CG3618 (GeneID 40303)	DRSC11746		3357		1488	
Septin1 (GeneID 33114)	DRSC20573		21136		11668	
5-HT1B (GeneID 37191)	DRSC05031		11126		3128	
5-HT1B (GeneID 37191)	DRSC05769		8841		2040	
CG1578 (GeneID 32135)	DRSC19729		2520	8274	1267	2709
Cep89 (GeneID 36733)	DRSC07110		5227		2295	
yellow-f (GeneID 41595)	DRSC15348		13292		2512	
CG12911 (GeneID 36081)	DRSC06226		2208	6357	769	2504
mEFTu1 (GeneID 44438)	DRSC06959		16729		4597	
CG9581 (GeneID 33017)	DRSC20695		4056	10581	1544	4091
CG9581 (GeneID 33017)	DRSC22247		4.29e5	5.35e5	1.87e5	2.96e5
CG13445 (GeneID 39719)	DRSC09992		9011		3307	
CG7054 (GeneID 42643)	DRSC16185		2299	8023	1313	2521
rumpel (GeneID 31674)	DRSC18436		14868		8025	
CG10543 (GeneID 37379)	DRSC04081		3536	9232	403	1420
CG13058 (GeneID 39806)	DRSC09941		8240		3872	
RhoGAP92B (GeneID 42371)	DRSC14507		16509		3619	
RhoGAP92B (GeneID 42371)	DRSC15637		11597		2757	
pall (GeneID 39104)	DRSC10364		2345		968	
KrT95D (GeneID 42843)	DRSC16725		1484	5728	476	2428

Laid out differently: results already given.
{"Gene":"Nrx-IV (GeneID 39387)","dsRNA":"DRSC11238","firefly reporter light, replicate 1":6184,"Renilla control light, replicate 1":2739}
{"Gene":"Cyp4ad1 (GeneID 35821)","dsRNA":"DRSC07369","firefly reporter light, replicate 1":8978,"Renilla control light, replicate 1":3648}
{"Gene":"CR11235 (GeneID 10178883)","dsRNA":"DRSC20480","firefly reporter light, replicate 1":17163,"Renilla control light, replicate 1":1000}
{"Gene":"CG8028 (GeneID 32923)","dsRNA":"DRSC20075","firefly reporter light, replicate 1":20357,"Renilla control light, replicate 1":11840}
{"Gene":"trc (GeneID 40165)","dsRNA":"DRSC11406","firefly reporter light, replicate 1":21127,"Renilla control light, replicate 1":5655}
{"Gene":"CG31867 (GeneID 261614)","dsRNA":"DRSC03338","firefly reporter light, replicate 1":2282,"firefly reporter light, replicate 2":3973,"Renilla control light, replicate 1":1147,"Renilla control light, replicate 2":1997}
{"Gene":"alphaSnap (GeneID 40233)","dsRNA":"DRSC11285","firefly reporter light, replicate 1":3880,"Renilla control light, replicate 1":1317}
{"Gene":"Ntl (GeneID 34046)","dsRNA":"DRSC03003","firefly reporter light, replicate 1":4426,"Renilla control light, replicate 1":1778}

More records follow:
Gene	dsRNA	reporter change call, replicate 1	firefly reporter light, replicate 1	firefly reporter light, replicate 2	Renilla control light, replicate 1	Renilla control light, replicate 2
CG12398 (GeneID 32422)	DRSC19454		16182		7434	
CG14881 (GeneID 41990)	DRSC15005		12496		2816	
CG31300 (GeneID 326132)	DRSC14657		17671		14393	
CG6023 (GeneID 32814)	DRSC19970		1384	4269	823	2069
CG5171 (GeneID 34016)	DRSC02823		8294		4340	
CG14455 (GeneID 40480)	DRSC11712		9344		3474	
ArfGAP3 (GeneID 40487)	DRSC11794		9545		3010	
sra (GeneID 47384)	DRSC17015		3152	4285	560	1671
CG17472 (GeneID 35320)	DRSC02622		2672	8214	779	3632
Idh3g (GeneID 43102)	DRSC15699		17872		14531	
CG13403 (GeneID 32366)	DRSC19535		20880		9780	
CG1486 (GeneID 33108)	DRSC20508		3220	7457	1378	3284
Ccdc56 + mtTFB1	DRSC10809		9683	8.56e5	4310	4.51e5
Rsph1 (GeneID 34712)	DRSC02864		2749	5760	1129	2938
CG17078 (GeneID 33195)	DRSC00484		2341	5608	893	2288
p-cup (GeneID 32727)	DRSC19513	Wg reporter activity lowered (active)	6322		8182	
hb (GeneID 41032)	DRSC16963		3609		1291	
CG13032 (GeneID 39863)	DRSC09912		7769		2736	
Dhc16F (GeneID 32785)	DRSC20242		23040		8994	
CG12643 (GeneID 50416)	DRSC17849		20215		9878	
CG8399 (GeneID 36768)	DRSC07163		9848		2871	
CG43057 (GeneID 12798305)	DRSC01015		22825		8757	
BomS2 (GeneID 49802)	DRSC21488		5.39e5	5.89e5	2.38e5	2.25e5
CG16826 (GeneID 34741)	DRSC02527		1869	5364	1108	2816
ng2 (GeneID 31298)	DRSC18803		16452		14498	
CG33467 (GeneID 2768834)	DRSC05525		25092		21141	
CG33467 (GeneID 2768834)	DRSC22651		5.17e5	5.78e5	2.13e5	1.62e5
Cyt-c1L (GeneID 43457)	DRSC14860		7520		2840	
Cyt-c1L (GeneID 43457)	DRSC22096		5.45e5	5.89e5	1.86e5	1.76e5
